Source: the supplement of paper PMC9671908
Structures can show the parent of a compound that is named as a salt. The list shows a part of the results. Single values are uncertain, as repeats are few or missing.

Tests used:
MIA PaCa-2 parental = test: parental cell viability relative to untreated parental control; higher = more surviving cells; conditions: treatment time: 9 days
MIA PaCa-2 persister = test: persister cell viability relative to untreated persister control; higher = more surviving persister cells; conditions: treatment time: 9 days; cell state: persister (100 nM gemcitabine + 100 nM Torin1)

Row | SMILES | parental cell viability (MIA PaCa-2 parental) | persister cell viability (MIA PaCa-2 persister)
1 | CC(C)c1cnn2c(NCc3ccccc3-n3cccn3)nc(OC3CCCNC3)nc12 (stereo not drawn) (inhibitor concentration: 300nM) | 102% | 160%
2 | O=C1C(SCCO)=C(SCCO)C(=O)c2ccccc21 (inhibitor concentration: 3µM) | 108% | 65%
3 | C/C(=N\NC(=O)c1cccc(S(=O)(=O)N2CCOCC2)c1)c1cc(Cl)ccc1O (inhibitor concentration: 1µM) | 75% | 108%
4 | CN(CCOc1ccc(CC2SC(=O)NC2=O)cc1)c1ccccn1 (stereo not drawn) [Rosiglitazone maleate] (inhibitor concentration: 3µM) | 102% | 95.5%
5 | N#Cc1cnc(Nc2cc(NC[C@H]3CNCCO3)c(C(F)(F)F)cn2)cn1 (inhibitor concentration: 3µM) | 100% | 16%
6 | O=C(N[C@@H](C1CC1)C(F)(F)F)c1cc(-c2cnn3cc(-c4ccc(F)cc4)cnc23)cs1 (inhibitor concentration: 20µM) | 77.5% | 20%
7 | Cc1cccc(CC(=O)N2CCc3c2ccc(-c2cn(C)c4ncnc(N)c24)c3F)n1 (inhibitor concentration: 30µM) | 102% | 160%
8 | Cc1nc(-c2nc(-c3ccc(OC(F)(F)F)cc3)no2)nn1Cc1cccc(N2CCC(S(C)(=O)=O)CC2)c1 (inhibitor concentration: 10µM) | 100% | 100%
9 | COc1c(C)cnc(Cn2cnc3c(Cl)nc(N)nc32)c1C (inhibitor concentration: 300nM) | 5% | 100%
